Measured values from US20070036794A1.
These are yes or no findings as the source states them, for the method shown. Some results given as binding are weak or reduced against the parent protein; the word gives no strength.

By UniProt entry, the sequences of proteins in these tests, tags left out. Where a name states a change or a piece, a line headed by the entry shows the natural chain unless it says otherwise.
UniProt Q16288: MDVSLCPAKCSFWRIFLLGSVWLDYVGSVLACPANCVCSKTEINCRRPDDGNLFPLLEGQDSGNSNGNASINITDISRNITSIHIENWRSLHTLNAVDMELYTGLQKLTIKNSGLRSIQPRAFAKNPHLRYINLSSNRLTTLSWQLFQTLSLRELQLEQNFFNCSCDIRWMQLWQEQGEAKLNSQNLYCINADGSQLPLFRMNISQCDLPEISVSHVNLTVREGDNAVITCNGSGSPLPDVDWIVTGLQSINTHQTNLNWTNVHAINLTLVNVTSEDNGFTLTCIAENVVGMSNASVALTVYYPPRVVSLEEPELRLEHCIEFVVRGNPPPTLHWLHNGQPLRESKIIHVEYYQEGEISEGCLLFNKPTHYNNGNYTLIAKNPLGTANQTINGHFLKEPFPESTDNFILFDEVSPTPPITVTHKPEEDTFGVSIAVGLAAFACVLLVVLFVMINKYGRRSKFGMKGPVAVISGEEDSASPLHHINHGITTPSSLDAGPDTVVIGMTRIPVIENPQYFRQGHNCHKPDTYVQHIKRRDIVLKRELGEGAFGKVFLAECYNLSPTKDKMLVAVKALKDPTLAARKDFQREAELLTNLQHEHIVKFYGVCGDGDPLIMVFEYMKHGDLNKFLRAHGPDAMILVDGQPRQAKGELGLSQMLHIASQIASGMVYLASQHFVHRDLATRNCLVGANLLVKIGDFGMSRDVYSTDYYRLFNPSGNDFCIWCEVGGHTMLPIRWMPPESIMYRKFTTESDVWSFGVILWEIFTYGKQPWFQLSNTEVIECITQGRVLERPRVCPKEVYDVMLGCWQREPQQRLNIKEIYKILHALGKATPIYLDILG

Assays:
[1] = target: gD-tagged trkC (human trkC-gD) (human) (UniProt Q16288); experiment: direct ELISA on immobilized human trkC-gD, Mab 1 µg/ml (FIG. 3)
[2] = target: gD-tagged trkC (human trkC-gD) (human) (UniProt Q16288); experiment: direct ELISA: coated human trkC-gD (1 µg/ml), MAb 1 µg/ml, HRP conjugate
[3] = target: gD-tagged trkC (human trkC-gD) (human) (UniProt Q16288); experiment: direct ELISA on immobilized human trkC-gD

Measured: binding

B1: anti-trkC agonist monoclonal antibody 2253 (antibody, mouse IgG1, V domains shown)
VH: QVQLQQSGAELMQPGASVKISCKSTGYTFSNFWIEWVKQRPGHGLEWIGEILPGSDNTNYNEKFKGKATFTADTSSNTAYMQLSSLTSEDSAVYYCARKNRNYYGNYVVWGAGTTLTVSS
VL: QIVLTQSPAIMSASPGEKVTITCSASSSVSYMYWFQQKPGTSPKLWIYSTSNLASGVPARFSGSGSGTSYSLTISRMEAEDAATYYCQQRSSYPLTFGAGTKLELKR
binds: all assays above

B2: anti-trkC agonist monoclonal antibody 2349 (antibody, human IgG4, V domains shown)
VH: QVQLQESGPGLVKPSQTLSLTCTVSGGSISSGYYYWSWIRQHPGKGLEWIGYIYYSGSTYYNPSLKSRLTISVDTSKNQFSLKLSSVTAADTAVYYCARERIAAAGTDYYYNGLAVWGQGTTVTVSS
VL: GIVLTQSPGTLSLSPGERATFSCRASQSGSSTYLAWYQQKPGQAPRLLIYGASSRATGIPDRFSGSGSGTDFTLTISRLEPEDFAVYYCQQYGRSPPITFGQGTRLEIKR
binds: all assays above
